For at least one entry, the source does not settle the construct or the ends of the probe. Weaker means in comparison with the reference protein, sequence or condition of that experiment. At least one verdict was read from the data and is not stated in words by the source. Where a protein sequence is shown, tags need not be part of it.

This data set addresses T1, VIGILIN (Homo sapiens) (UniProt Q00341).
T1 sequence (looked up): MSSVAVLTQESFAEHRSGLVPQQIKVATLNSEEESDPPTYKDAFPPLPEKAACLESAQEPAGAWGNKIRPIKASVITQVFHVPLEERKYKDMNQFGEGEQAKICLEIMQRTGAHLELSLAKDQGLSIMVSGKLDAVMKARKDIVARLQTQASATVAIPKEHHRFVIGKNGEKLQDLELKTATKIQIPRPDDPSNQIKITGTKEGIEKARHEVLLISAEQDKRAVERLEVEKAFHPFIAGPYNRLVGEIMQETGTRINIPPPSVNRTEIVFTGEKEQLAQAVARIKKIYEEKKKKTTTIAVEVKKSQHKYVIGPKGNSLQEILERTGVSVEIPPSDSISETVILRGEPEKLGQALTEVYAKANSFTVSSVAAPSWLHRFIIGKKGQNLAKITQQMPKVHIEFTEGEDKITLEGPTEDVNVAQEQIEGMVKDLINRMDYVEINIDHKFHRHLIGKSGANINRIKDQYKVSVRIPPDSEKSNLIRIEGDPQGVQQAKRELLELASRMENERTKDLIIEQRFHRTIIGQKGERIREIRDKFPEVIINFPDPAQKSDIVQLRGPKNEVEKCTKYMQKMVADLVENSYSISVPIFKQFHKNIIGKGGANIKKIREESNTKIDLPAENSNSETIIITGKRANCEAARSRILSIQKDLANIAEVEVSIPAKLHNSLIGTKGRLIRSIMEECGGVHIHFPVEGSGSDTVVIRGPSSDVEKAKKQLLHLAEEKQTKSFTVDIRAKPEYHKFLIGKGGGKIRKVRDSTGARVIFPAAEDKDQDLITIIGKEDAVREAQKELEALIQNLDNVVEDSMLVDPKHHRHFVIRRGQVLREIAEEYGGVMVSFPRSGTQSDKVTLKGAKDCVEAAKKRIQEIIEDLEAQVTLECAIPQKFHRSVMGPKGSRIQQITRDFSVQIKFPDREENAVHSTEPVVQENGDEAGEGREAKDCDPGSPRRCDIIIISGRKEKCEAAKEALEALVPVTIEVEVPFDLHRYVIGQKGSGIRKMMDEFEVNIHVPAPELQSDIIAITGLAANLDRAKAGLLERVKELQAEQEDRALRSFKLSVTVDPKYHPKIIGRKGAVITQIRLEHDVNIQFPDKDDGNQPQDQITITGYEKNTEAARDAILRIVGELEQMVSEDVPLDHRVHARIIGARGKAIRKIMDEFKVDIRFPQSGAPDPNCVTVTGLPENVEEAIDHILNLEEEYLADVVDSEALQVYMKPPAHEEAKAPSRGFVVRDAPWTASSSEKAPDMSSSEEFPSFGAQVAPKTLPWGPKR
The experiment in a line: EMSA. Particulars: text: decreased or no binding for mutated and scrambled sites; 10 nM 32P-RNA, 0-10 uM protein, 250 mM KCl, 5 mM MgCl2, 25 mM Tris-HCl pH 7.5, 10% glycerol, 1 mg/ml acetylated BSA, 1.5 uM yeast tRNA, 25 C, 5 min; 1.2% agarose gel; recombinant protein; residues 1-1268; protein details: His6 (expressed from pETM30-vigilin-His6); label: 5' 32P.
Take “CCGGCAAUCAUGCCUUACGAUUAUCC [Apob binding site scrambled]”: the binding result is listed as “binds more weakly”.
The result for “CGCAACUUUUACAUUCUAUCAUAGCC [fetuin-A binding site scrambled]” reads “binds more weakly”.
Regarding “CUAACUAAAUAAUAAUAUUAUUAAGG [fetuin-A binding site RRE mutant]”, the binding result was “binds more weakly”.
The result for “GAUUUAAAUCAACCUAAUUACAGGGC [Apob binding site RRE mutant]” reads “binds more weakly”.

The values above are taken from PMC5052685, “The RNA-binding protein vigilin regulates VLDL secretion through modulation of Apob mRNA translation”.
